# Reference: the supplement of paper PMC10727501
# The list shows a part of the results. This data set is noisy: repeats of one test often differ as much as different tests do.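 Researchers measured free-swimming zebrafish larvae's O-bend response probability to dark flashes (naive: first five; training: remaining flashes of four 60-flash blocks; test: later 60-flash block) and OMR turning toward alternating leftward/rightward LED motion. Six treated larvae were compared to sixty 0.1% DMSO controls, with |SSMD|≥2 marking a hit.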
# Assays:
# Conditions in all cases: 10 µM; pre-incubation: 30-90 min
# [1] = system: Danio rerio larvae (5 dpf, TLF); assay: OMR-Perf (SSMD vs DMSO vehicle); higher = higher than vehicle (e.g. higher dark-flash O-bend response probability, or better optomotor performance)
# [2] = system: Danio rerio larvae (5 dpf, TLF); assay: Prob-Test (SSMD vs DMSO vehicle); higher = higher than vehicle (e.g. higher dark-flash O-bend response probability, or better optomotor performance)
# [3] = system: Danio rerio larvae (5 dpf, TLF); assay: Prob-Naive (SSMD vs DMSO vehicle); higher = higher than vehicle (e.g. higher dark-flash O-bend response probability, or better optomotor performance)
# [4] = system: Danio rerio larvae (5 dpf, TLF); assay: Prob-Train (SSMD vs DMSO vehicle); higher = higher than vehicle (e.g. higher dark-flash O-bend response probability, or better optomotor performance)
SMILES,OMR-Perf [1],Prob-Test [2],Prob-Naive [3],Prob-Train [4]
C=C[C@H]1CN2CCC1C[C@H]2[C@H](O)c1ccnc2ccccc12 (some centres undefined) [Cinchonidine],-0.278,0.11,0.285,0.514
Cl.NCC1(CC(=O)O)CCCCC1 [Gabapentin Hydrochloride],-0.266,-0.511,-0.419,-0.584
C[C@]12CC[C@H](O)CC1=CC[C@@H]1[C@H]2CC[C@]2(C)C(=O)CC[C@@H]12 [Dehydroepiandrosterone (DHEA)],-0.693,-1.07,-0.214,-0.415
Cl.NCCc1c[nH]c2ccc(O)cc12 [Serotonin HCl],-0.0919,-0.547,0.207,0.144
C[C@]12N[C@H](Cc3ccccc31)c1ccccc12 [MK-801 (Dizocilpine)],-0.931,-1.59,0.185,-0.395
O=P([O-])(O)C(Cl)(Cl)P(=O)([O-])O.[Na+].[Na+] [Clodronate Disodium],-0.735,0.167,0.433,0.0885
CN1[C@@H]2C[C@@H](O)C[C@H]1[C@@H]1O[C@@H]12 [Scopine],-0.0107,-0.0666,-1.09,-0.192
CN1CCC(c2c[nH]c3ccc(O)cc23)CC1,-0.629,0.0564,0.213,-0.422
c1ccc2c(c1)sc1ccccc12 [Dibenzothiophene],-0.721,-0.266,-1.67,-1.21
O=c1cccc2n1C[C@@H]1CNC[C@H]2C1 [Cytisine],0.504,0.484,0.0956,0.551
C[C@]12CCC(=O)C(O)=C1CC[C@@H]1[C@H]2CC[C@]2(C)C(=O)CC[C@@H]12 [Formestane],-0.58,0.0727,-0.0954,0.0432
O=[N+]([O-])c1ncc[nH]1 [Azomycin],-0.55,-0.436,0.285,-0.554
O=S(=O)(F)Cc1ccccc1,-0.371,1.15,-0.761,-0.451
Cc1cccc(C)c1NC(=O)CN1CCCC1=O [Nefiracetam],-0.414,-0.331,-0.163,-0.223
CC(=O)O[C@H]1C[C@@H]2CC[C@@H]3[C@@H](CC[C@]4(C)[C@H](OC(C)=O)[C@@H]([N+]5(C)CCCCC5)C[C@@H]34)[C@@]2(C)C[C@@H]1[N+]1(C)CCCCC1.[Br-].[Br-] [Pancuronium dibromide],-0.139,0.369,0.374,0.576
COc1ccc(OC)c(C(O)C(C)N)c1.Cl (centres undefined) [Methoxamine HCl],-0.499,-0.0249,-0.119,-0.147
C/C(=C\c1csc(C)n1)[C@H]1C[C@@H]2O[C@@H]2CCC[C@H](C)[C@H](O)[C@@H](C)C(=O)C(C)(C)[C@H](O)CC(=O)O1 [Epothilone A],0.0774,0.034,0.214,0.346
Br.CCN1C[C@]2(OC(=O)c3ccccc3NC(C)=O)CC[C@@H](OC)[C@]34C1[C@@H](C[C@H]23)[C@@]1(O)C[C@H](OC)[C@H]2C[C@H]4[C@]1(O)[C@H]2OC [Lappaconite HBr],0.12,0.287,0.208,0.185
O=C(O[C@H]1C[N+]2(CCCOc3ccccc3)CCC1CC2)C(O)(c1cccs1)c1cccs1.[Br-] [Aclidinium Bromide],-0.441,-0.648,0.185,-0.778
CC(NC(C)(C)C)C(=O)c1cccc(Cl)c1.Cl (centres undefined) [Amfebutamone HCl],0.239,0.168,-0.0304,0.216
NCCC(O)(P(=O)([O-])O)P(=O)([O-])O.[Na+].[Na+] [Pamidronate Disodium],-0.455,-0.0636,0.511,0.248
C[N+]1(C)CCCC(OC(=O)C(O)(c2ccccc2)c2ccccc2)C1 (centres undefined) [Mepenzolate Bromide],-0.0483,-0.275,0.298,-0.3
"C/C(=C\c1csc(C)n1)[C@H]1C[C@@H]2O[C@]2(C)CCC[C@H](C)[C@H](O)[C@@H](C)C(=O)C(C)(C)[C@H](O)CC(=O)O1 [Epothilone B (EPO906, Patupilone)]",0.411,0.275,0.454,0.439
C[C@]12CC[C@H](O)C[C@H]1CC[C@@H]1[C@@H]2C[C@@H](O)[C@]2(C)[C@@H](C3=CC(=O)OC3)CC[C@]12O [Digoxigenin],-0.501,-1,-0.18,-0.556
C1=C2CCCN[C@H]2[C@@H]2C[C@H]1[C@H]1CCCCN1C2 [Aloperine],-1.1,-0.427,-0.224,0.263
Cc1cccc(Cc2c[nH]cn2)c1C.Cl [Detomidine HCl],-0.83,-1.43,-1.86,-2.46

# 3 structures out of the list, arranged by SMILES length, rising:
SMILES,OMR-Perf [1],Prob-Test [2],Prob-Naive [3],Prob-Train [4]
C[C@]12N[C@H](Cc3ccccc31)c1ccccc12 [MK-801 (Dizocilpine)],-0.931,-1.59,0.185,-0.395
C[N+]1(C)CCCC(OC(=O)C(O)(c2ccccc2)c2ccccc2)C1 (centres undefined) [Mepenzolate Bromide],-0.0483,-0.275,0.298,-0.3
"C/C(=C\c1csc(C)n1)[C@H]1C[C@@H]2O[C@]2(C)CCC[C@H](C)[C@H](O)[C@@H](C)C(=O)C(C)(C)[C@H](O)CC(=O)O1 [Epothilone B (EPO906, Patupilone)]",0.411,0.275,0.454,0.439

# Additional compounds:

SMILES,OMR-Perf [1],Prob-Test [2],Prob-Naive [3],Prob-Train [4]
O=P1(NCCCl)OCCCN1CCCl (centres undefined) [Ifosfamide],0.181,0.085,0.121,0.621
Cc1ccccc1-n1c(Cn2ncc3c(N)ncnc32)nc2cccc(C)c2c1=O,-0.474,-0.736,0.285,-0.00159
O=C(NCC1CCOCC1)c1cnc(Nc2ccc(Cl)cc2Cl)nc1C(F)(F)F,-0.724,-0.335,-0.0375,-0.21
CC(=O)Nc1ccc(OC[C@](C)(O)C(=O)Nc2ccc([N+](=O)[O-])c(C(F)(F)F)c2)cc1 [Andarine],-0.277,-0.015,0.515,0.383
CCCCCCCCCCCC[N+](C)(C)CCOc1ccccc1.[Br-] [Domiphen Bromide],-0.129,-1.79,-1.2,-2.1
O=C(Oc1ccc([N+](=O)[O-])cc1)N1CCC(C(O)(c2ccc3c(c2)OCO3)c2ccc3c(c2)OCO3)CC1,0.537,0.268,0.0849,0.154
CNCC(O)c1ccc(O)cc1.Cl (centres undefined) [Synephrine HCl],-0.399,0.271,-0.498,0.0889
CN1C(=O)COc2c(C(=O)NC3CN4CCC3CC4)cc(Cl)cc21.Cl (centres undefined),0.357,-0.373,0.0551,-0.173
C[C@H]1CNCCc2ccc(Cl)cc21.Cl [Lorcaserin HCl],-0.0115,-0.516,-0.395,-0.888
C=CC[C@@]1(O)CC[C@H]2[C@@H]3CCC4=CC(=O)CCC4=C3C=C[C@@]21C [Altrenogest],-0.512,-1.34,-1.71,-2.06
CCC1(c2ccc(N)cc2)CCC(=O)NC1=O (centres undefined) [Aminoglutethimide],-0.179,0.0606,0.214,-0.0938
C[C@@]12N[C@@H](Cc3ccccc31)c1ccccc12.O=C(O)/C=C/C(=O)O [(-)-MK 801 Maleate],-0.952,-1.25,0.389,-2.12
CN1CCCCC1Cn1cc(C(=O)c2cc([N+](=O)[O-])ccc2I)c2ccccc21 (centres undefined),-0.695,-1.15,-0.027,-0.799
CNCC(O)c1ccc(O)cc1 (centres undefined) [Synephrine],0.313,-0.242,-0.038,0.0264
COC1=C[C@@H]2[C@@H]3Cc4ccc(OC)c(O)c4[C@]2(CCN3C)CC1=O [Sinomenine],0.0798,-0.564,-0.141,-0.641
CN(C)[C@@H]1C(O)=C(C(N)=O)C(=O)[C@@]2(O)C(=O)C3=C(O)c4c(O)cccc4[C@@](C)(O)[C@H]3[C@H](O)[C@@H]12 [Oxytetracycline (Terramycin)],-0.41,0.0142,-0.172,0.814
c1ccc2c(c1)Nc1ccccc1S2 [Phenothiazine],-0.603,-0.692,-4.98,-2.43
O=c1[nH]c2ccc(Cl)cc2c(N[C@@H]2CN3CCC2CC3)c1-c1nc2ccccc2[nH]1,-0.883,1.01,-0.13,-0.126
Cl.N[C@H]1C[C@@H]1c1ccccc1 [Tranylcypromine (2-PCPA) HCl],0.334,-1.23,0.245,-0.635
CCN(C)C(=O)Oc1cccc([C@H](C)N(C)C)c1.O=C(O)[C@H](O)[C@@H](O)C(=O)O [Rivastigmine Tartrate],0.488,-0.0749,-0.226,0.091
Cl.Cn1c(CCCC(=O)O)nc2cc(N(CCCl)CCCl)ccc21 [Bendamustine HCl],0.209,-0.349,-0.459,-0.323
C[C@H]1O[C@@H](O[C@@H]2C[C@H](O)[C@]3(CO)[C@H]4[C@H](O)C[C@]5(C)[C@H](C6=CC(=O)OC6)CC[C@]5(O)[C@@H]4CC[C@]3(O)C2)[C@@H](O)[C@H](O)[C@H]1O.O.O.O.O.O.O.O.O [Ouabain],-0.741,-0.388,0.0124,-0.348
O=S(=O)([O-])[O-].[NH3+]C1CC1c1ccccc1.[NH3+]C1CC1c1ccccc1 (centres undefined) [Phosphatidylcholine],0.0642,-1.53,0.298,-0.771
C[C@](O)(COc1ccc(C#N)cc1)C(=O)Nc1ccc(C#N)c(C(F)(F)F)c1,-0.785,-1.25,-0.595,-1.12
CN[C@@H]1C[C@@H](N)[C@H](O)[C@@H](O[C@@H]2O[C@H](CO)[C@H](O)[C@@H]3OC4(O[C@@H]23)O[C@H]([C@@H](N)CO)[C@H](O)[C@H](O)[C@@H]4O)[C@@H]1O (some centres undefined) [Hygromycin B],-0.577,-0.155,0.131,-0.0925
